Values of other authors in US10238670B2, “9-aminomethyl minocycline compounds and methods of use thereof in urinary tract infection (UTI) treatment” (Paratek Pharmaceuticals, Inc., priority 2016, dated 2019).
Some of these results come from one statement about several compounds together.

Tested on: human plasma protein
Settings: cited from earlier work

## CN[C@H](CC(C)C)C(=O)N[C@H]1C(=O)N[C@@H](CC(N)=O)C(=O)N[C@H]2C(=O)N[C@H]3C(=O)N[C@H](C(=O)N[C@H](C(=O)O)c4cc(O)cc(O)c4-c4cc3ccc4O)[C@H](O[C@H]3C[C@](C)(N)[C@@H](O)[C@H](C)O3)c3ccc(c(Cl)c3)Oc3cc2cc(c3O[C@@H]2O[C@H](CO)[C@@H](O)[C@H](O)[C@H]2O[C@H]2C[C@](C)(NCc3ccc(-c4ccc(Cl)cc4)cc3)[C@@H](O)[C@H](C)O2)Oc2ccc(cc2Cl)[C@H]1O [oritavancin]
  protein bound in human plasma: > 75%

## CCCCCCCCCCNCCN[C@@]1(C)C[C@H](O[C@H]2[C@H](Oc3c4cc5cc3Oc3ccc(cc3Cl)[C@@H](O)[C@@H](NC(=O)[C@@H](CC(C)C)NC)C(=O)N[C@@H](CC(N)=O)C(=O)N[C@H]5C(=O)N[C@H]3C(=O)N[C@H](C(=O)N[C@H](C(=O)O)c5cc(O)c(CNCP(=O)(O)O)c(O)c5-c5cc3ccc5O)[C@H](O)c3ccc(c(Cl)c3)O4)O[C@H](CO)[C@@H](O)[C@@H]2O)O[C@@H](C)[C@H]1O [telavancin]
  protein bound in human plasma: > 75%
